Measurements as given in PubChem BioAssay AID651664 (NMMLSC, 2012).
Hit rate of the full screen: of about 1,800 compounds, fewer than 10 were called active.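 How the source made its calls: active means inhibition of granule release above a set limit; inactive means the rest.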 The list shows a part of the results.

Assay: inhibitors of lytic granule exocytosis, flow cytometry, TALL-104 cells, validation set (AID 651664)
Conditions: TALL-104 LAMP-1 externalization, at 15.2 µM, stronger effect = higher value, stimulated with thapsigargin and PMA

inhibition, inactive:
O=C(Cn1cccc1C(=O)c1ccccc1)NCc1ccc2c(c1)OCO2 -2.5%
Cc1ccc(C(=O)NC(=S)Nc2cc(C(F)(F)F)ccc2Cl)cc1 2.1%
CCn1c(=N)n(CC(O)c2ccccc2)c2ccccc21 (centres undefined) 0.1%
O=S(=O)(c1ccc(Cl)cc1)c1snnc1-c1ccccc1 -2.8%
COC(=O)C1=CN(CCCN2CCCC2=O)C=C(C(=O)OC)C1c1ccccc1C(F)(F)F 3.5%
Cc1ccccc1NS(=O)(=O)c1ccc2[nH]cc(C(=O)N(C)Cc3ccco3)c(=O)c2c1 -1.6%
CC(=O)c1ccc(NC(=O)Nc2ccc(NS(=O)(=O)c3ccc(C)cc3)cc2)cc1 -2.9%
O=c1cc(-c2ccc(Cl)c(Cl)c2)[nH][nH]1 -1.5%
CCOc1ccccc1NC(=O)c1ccc(S(=O)(=O)N2CCOCC2)cc1 -1.3%
O=C1N/C(=N/Nc2ccccc2)S/C1=C\c1ccccc1 2.3%
COCCCn1c(-c2ccccc2Cl)n[nH]c1=S 4.6%
CC(C)(C)c1ccc(C(=O)Nc2ccccc2NC(=O)c2ccco2)cc1 -5.5%
Nc1cc(=O)[nH]c(SC/C=C/c2ccccc2)n1 -2.4%
O=C(Nc1ccc2c(c1)OCCO2)c1ccc(Br)c(S(=O)(=O)N2CCOCC2)c1 0.7%
CCOc1ccc(-n2nnnc2SCC(=O)c2ccccc2)cc1 2.2%
COc1ccc(-c2[nH]nc3c2C(c2ccoc2)C(C#N)=C(N)O3)cc1 (centres undefined) 0.9%
CCCS/C(N)=N/N=C/c1cc(C)ccc1O -0.4%
CCOC(=O)COc1ccc(/C=C2/SC(=Nc3ccccc3)N(Cc3cccnc3)C2=O)cc1OC 0.5%
CCN(CC)C(=O)CSc1ncnc2c1nnn2-c1ccc(OC)cc1 -0.1%
O=C(Nc1ccccc1)N1C2CCC1CC(O)(c1cccnc1)C2 (centres undefined) -2%
COc1ccc(CN2CCN(C(=O)c3ccco3)CC2)cc1OCc1ccccc1 -1%
COc1cccc(/C=N/NC(=O)CSc2nnc(C)n2-c2ccccc2)c1O -2.5%
Cc1nn(Cc2ccccc2Cl)c2sc(C(=O)NCc3ccc4c(c3)OCO4)cc12 1.1%
CC(C)c1ccc(Nc2ncccc2C#N)cc1 11.2%
O=C(COC(=O)c1ccccc1)NCc1ccco1 -0.5%
COc1ccc(/C=N/n2cnnc2SCCO)cc1OC 0%
Cc1nn(-c2ccccc2)c2nc(-c3ccco3)cc(C(=O)O)c12 3.1%
Cc1cccc2cc(COC(=O)C(C)C)c(=O)[nH]c12 -1.9%
Cc1ccc(-n2nc3cc(C)c(NC(=O)c4cccnc4)cc3n2)cc1 -4.1%
CC1=CCC(C(=O)N/N=C/c2cccs2)C(c2ccc(F)cc2)C1 (centres undefined) -2.4%
CCOC(=O)c1ccc(N2C(=O)CC(Sc3nnc(C)s3)C2=O)cc1 (centres undefined) -0.5%
C=C(C)COc1ccc(-c2[nH]ncc2-c2ccc(OC)c(OC)c2)c(O)c1 1.2%
C=CCN1C(=O)CC(C(=O)NC)SC1=Nc1ccc(C(=O)OCC)cc1 (centres undefined) -3%
CCc1ccc(Nc2ncccc2C#N)cc1 1.1%
NC(=O)CSc1nnc2sc3ccccc3n12 6.1%
c1ccc(N2CCCCC2)c(NC2=NCCC2)c1 1.2%
COC(=O)c1ccc(CN2CCN(Cc3ccc(C(=O)OC)o3)CC2)o1 2.2%
CCC(CC)NC(=O)c1cc2c(C)nn(Cc3ccccc3Cl)c2s1 -0.5%
CSc1nc2nc3c(c(=O)n2[nH]1)CCCC3 1.3%
CCOC(=O)c1c(C)nc2sc3c(=O)n(-c4ccc(C(C)=O)cc4)cnc3c2c1-c1ccc(Cl)cc1 7.6%
Cc1ccc(O)c(-c2cc(C(F)(F)C(F)F)[nH]n2)c1 2.3%
COc1ccc(-c2sc(NC(=O)c3ccc(C)cc3)nc2-c2ccc([N+](=O)[O-])cc2)cc1 0.2%
Cc1ccc(CCN2CC(C(=O)NCCCN3CCOCC3)CC2=O)cc1 (centres undefined) 3.8%
Nc1nc(CSCc2ccccc2)nc(N2CCOCC2)n1 -1.9%
CSC(=NCCCN1CCOCC1)NS(=O)(=O)c1cccs1 1.8%
Fc1ccccc1/C=N/Nc1nn[nH]n1 -1.6%
CCOC(=O)c1c(-c2cccc([N+](=O)[O-])c2)csc1NC(=O)C1CCCCC1 0.9%
COC(=O)c1nn(-c2ccc(-c3ccccc3)cc2)cc1O -2.5%
COC(=O)c1ccccc1Sc1c(/C=N/OCc2ccc(Cl)cc2)c(C(F)(F)F)nn1C -2.9%
CC(C)c1ccc(NC(=O)NC2CCN(CC(=O)Nc3cccc4ccccc34)CC2)cc1 -1.8%
COc1ccc(Oc2c(C)oc3c(CN4CCOCC4)c(O)ccc3c2=O)cc1 -1.6%
CCOC(=O)c1ccc(NS(C)(=O)=O)cc1 -3.4%
Cc1nn(C)c(C)c1NC(=O)Nc1cccc(C(F)(F)F)c1 2%
CCN(Cc1cc2cccc(C)c2[nH]c1=O)C(=O)c1ccccc1OC -1.7%
CCn1c(COc2ccc3c(c2)OCO3)nnc1SCC(=O)c1ccccc1 -1.1%
O=C(NCc1ccncc1)Nc1ccc(F)cc1 -2.7%
CCN=C1SC(CC(=O)Nc2sc(C)c(C)c2C(=O)OC)C(=O)N1CC (centres undefined) -1.5%
COC(=O)C1CCN(c2cc(=O)n(C3CCCCC3)c(=O)[nH]2)CC1 5.6%
CCN(CC)C(=O)CCC(=O)Nc1ccc(C(=O)OC)cc1 -0.8%
O=C1c2ccccc2NC(c2cnc3ccccc3n2)N1O (centres undefined) -0.6%
COc1ccc(-c2nnc(SCC(=O)NCCc3ccccc3)o2)cc1 -6%
CC(C)(C)N1CC(c2nc3ccccc3n2CCOc2ccccc2)CC1=O (centres undefined) -1.1%
CCOc1ccccc1N1CCN(S(=O)(=O)CC)CC1 2.8%
CCCN(C(=S)Nc1ccccc1)C1CCS(=O)(=O)C1 (centres undefined) -0.4%
c1ccc(-c2nnc(SCc3nnc(-c4cccs4)o3)o2)cc1 -1.5%
CCOC(=O)c1nnn(-c2nonc2N)c1COc1c(C=O)cccc1OC -1.7%
COc1cccc(C(=O)Nc2ccc(NC(=O)c3ccco3)cn2)c1 -1.1%
CC1CCN(S(=O)(=O)c2ccc(F)c(C(=O)O)c2)CC1 3.9%
Cc1c(NC2=NC3(CCCCC3)Cc3ccccc32)c(=O)n(-c2ccccc2)n1C 0.6%
N/C(=N\OC(=O)c1ccc(Cl)cc1Cl)c1ccc(Cl)cc1 5.2%
Fc1ccccc1COc1ccc(Br)cc1CNCc1ccncc1 -0.2%
Cc1cc(C)n(-c2ccc(N3CCOCC3)nn2)n1 13.4%
CC1SC(=NC(=O)C(C)N2C(=O)c3ccccc3C2=O)NC1=O (centres undefined) -1.3%
Cc1cc(Nc2ccccc2)n(-c2nc3ccccc3[nH]2)n1 11.6%
Cc1csc2nc(CSc3nc4ccccc4o3)c(Br)n12 -0.9%
C=C(C)COc1ccc(-c2n[nH]c(C)c2Oc2ccccc2OC)c(O)c1 -0.7%
Cc1nc(NCc2ccco2)c(C#N)c2c1COC(C)(C)C2 -1%
CCOc1ccccc1N1CC(C(=O)Nc2nccs2)CC1=O (centres undefined) -1.1%
O=c1c2ccccc2nc(/C=C/c2cccc([N+](=O)[O-])c2)n1CCCO -1.7%
CCCNC(=O)c1ccc(-c2nc3ccccc3s2)s1 2.9%
CCCSC1=N/C(=C\C=C\c2ccco2)C(=O)S1 -2.2%
CC(=O)Oc1ccc2c(c1)OC(c1ccccc1)CC21CC(C)(C)NC(=S)N1 (centres undefined) -0.7%
CCOC(=O)C(NC(=O)c1ccccc1)=C1C=C(C)OC(C)=C1 2.3%
N=C1C(c2nc(-c3ccc(Cl)cc3)cs2)=C(O)CN1CCCN1CCOCC1 1.7%
O=C(Nc1ccc(F)cc1)c1nsc(Cl)c1Cl 0.6%
COC(=O)C1=C(C(=O)c2ccccc2)C(c2cccs2)n2nnnc2N1 (centres undefined) 0%
CC(C)(C)C1CCc2[nH]c3ccccc3c(=O)c2C1 (centres undefined) 4.6%
CSc1ccc(S(=O)(=O)N2CCCC2)cc1 -1.2%
Cc1nnc(C)n1/N=C/c1ccccn1 -3.6%
O=C(Nc1ccc(NC(=O)c2ccco2)cc1)c1ccc2c(c1)OCO2 2.1%
O=C(O/N=C\c1ccc(N2CCCCC2)c([N+](=O)[O-])c1)c1cccc(C(F)(F)F)c1 -0.1%
COc1ccc(O)c(C(=O)c2cc(C#N)c(=O)n(CC3CCCO3)c2)c1 (centres undefined) -2.1%
O=[N+]([O-])/C=C/c1cn(Cc2ccccc2)c2ccccc12 -0.3%
O=c1c2ccccc2nc(SCc2cn3ccsc3n2)n1-c1ccccc1F 4.6%
COC(=O)C1=C(C)N=C2SCCC(=O)N2C1c1ccc(OC(=O)c2ccco2)cc1 (centres undefined) -1.3%
CCOC(=O)Nc1c(C(=O)OC)[nH]c2cc(OC)ccc12 0%
Cc1ccc(C)c2c3c([nH]c12)-c1nonc1CC3 -1%
Cc1cc(OCC(=O)NCc2nc(-c3ccccc3)no2)c(C)cc1Br 1.2%
CC(C)(C)NC(=O)Cc1ccc(S(=O)(=O)N2CCCC2)s1 -1.8%

Compounds from the list above that contain a tert-butyl group, in the order listed:
inhibition, inactive:
CC(C)(C)c1ccc(C(=O)Nc2ccccc2NC(=O)c2ccco2)cc1 -5.5%
CC(C)(C)N1CC(c2nc3ccccc3n2CCOc2ccccc2)CC1=O (centres undefined) -1.1%
CC(C)(C)C1CCc2[nH]c3ccccc3c(=O)c2C1 (centres undefined) 4.6%
CC(C)(C)NC(=O)Cc1ccc(S(=O)(=O)N2CCCC2)s1 -1.8%

Structures from the list above containing a COOH group, in the order listed:
inhibition, inactive:
Cc1nn(-c2ccccc2)c2nc(-c3ccco3)cc(C(=O)O)c12 3.1%
CC1CCN(S(=O)(=O)c2ccc(F)c(C(=O)O)c2)CC1 3.9%
